Experimental data from article PMC9629621.
No constants are given. Whether binding was seen depends on the method and setting. Binding seen in cells or lysates may run through a third protein. Some results given as binding are weak or reduced against the parent protein; the word gives no strength. For part of these data: Tags and fused reporters may be left off the sequences shown.

Sequences of proteins named here, by UniProt entry; tags and fusion partners are left off. A change or cut given only in a name is not applied to a line headed by its entry.
UniProt P10591: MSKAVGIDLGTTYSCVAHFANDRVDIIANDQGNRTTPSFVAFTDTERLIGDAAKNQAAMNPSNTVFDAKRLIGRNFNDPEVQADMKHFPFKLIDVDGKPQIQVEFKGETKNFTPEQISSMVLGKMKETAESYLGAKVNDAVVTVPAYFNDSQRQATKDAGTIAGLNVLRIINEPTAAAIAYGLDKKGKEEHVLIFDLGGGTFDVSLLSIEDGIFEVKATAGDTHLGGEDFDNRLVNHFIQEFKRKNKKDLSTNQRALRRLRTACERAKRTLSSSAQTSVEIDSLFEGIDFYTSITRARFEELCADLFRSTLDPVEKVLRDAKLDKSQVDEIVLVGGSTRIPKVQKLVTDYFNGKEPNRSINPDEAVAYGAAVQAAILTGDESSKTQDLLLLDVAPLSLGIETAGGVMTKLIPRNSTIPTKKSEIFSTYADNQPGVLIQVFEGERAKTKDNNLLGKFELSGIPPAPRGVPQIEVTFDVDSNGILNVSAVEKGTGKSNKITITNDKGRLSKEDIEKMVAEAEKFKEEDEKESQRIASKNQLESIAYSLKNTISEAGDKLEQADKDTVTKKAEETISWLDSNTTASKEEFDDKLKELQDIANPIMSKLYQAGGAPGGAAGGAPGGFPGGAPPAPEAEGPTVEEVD

T1: FLAG-Lonp-1, P36776
T1 chain: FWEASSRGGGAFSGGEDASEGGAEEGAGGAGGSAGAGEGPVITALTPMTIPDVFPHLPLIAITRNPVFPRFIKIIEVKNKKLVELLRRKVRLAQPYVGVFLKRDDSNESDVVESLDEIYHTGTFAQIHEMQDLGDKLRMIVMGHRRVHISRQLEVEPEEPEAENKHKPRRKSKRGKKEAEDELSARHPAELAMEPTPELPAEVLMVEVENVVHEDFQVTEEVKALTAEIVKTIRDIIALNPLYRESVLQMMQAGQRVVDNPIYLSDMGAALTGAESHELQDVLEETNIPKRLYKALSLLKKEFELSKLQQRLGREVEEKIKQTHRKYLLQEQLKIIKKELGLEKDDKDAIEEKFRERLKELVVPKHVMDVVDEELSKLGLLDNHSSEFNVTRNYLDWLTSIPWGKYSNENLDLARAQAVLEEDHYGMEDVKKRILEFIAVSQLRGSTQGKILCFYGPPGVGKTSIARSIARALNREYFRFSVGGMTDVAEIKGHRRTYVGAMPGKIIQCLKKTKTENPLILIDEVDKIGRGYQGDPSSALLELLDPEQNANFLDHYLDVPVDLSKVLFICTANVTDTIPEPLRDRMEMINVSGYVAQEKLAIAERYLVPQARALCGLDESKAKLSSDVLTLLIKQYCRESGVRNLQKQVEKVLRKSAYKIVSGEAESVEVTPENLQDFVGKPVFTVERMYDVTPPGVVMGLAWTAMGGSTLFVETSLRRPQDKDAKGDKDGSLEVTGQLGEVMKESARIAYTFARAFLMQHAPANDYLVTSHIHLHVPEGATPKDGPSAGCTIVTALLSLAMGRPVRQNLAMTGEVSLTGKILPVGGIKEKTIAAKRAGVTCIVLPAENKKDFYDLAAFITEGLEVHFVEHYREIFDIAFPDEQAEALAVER

B1: Rnr2 (protein, UniProt P09938 1-399)
chain: MPKETPSKAAADALSDLEIKDSKSNLNKELETLREENRVKSDMLKEKLSKDAENHKAYLKSHQVHRHKLKEMEKEEPLLNEDKERTVLFPIKYHEIWQAYKRAEASFWTAEEIDLSKDIHDWNNRMNENERFFISRVLAFFAASDGIVNENLVENFSTEVQIPEAKSFYGFQIMIENIHSETYSLLIDTYIKDPKESEFLFNAIHTIPEIGEKAEWALRWIQDADALFGERLVAFASIEGVFFSGSFASIFWLKKRGMMPGLTFSNELICRDEGLHTDFACLLFAHLKNKPDPAIVEKIVTEAVEIEQRYFLDALPVALLGMNADLMNQYVEFVADRLLVAFGNKKYYKVENPFDFMENISLAGKTNFFEKRVSDYQKAGVMSKSTKQEAGAFTFNEDF
B2: Hsp110, Q92598 1-858 (protein)
chain: MSVVGLDVGSQSCYIAVARAGGIETIANEFSDRCTPSVISFGSKNRTIGVAAKNQQITHANNTVSNFKRFHGRAFNDPFIQKEKENLSYDLVPLKNGGVGIKVMYMGEEHLFSVEQITAMLLTKLKETAENSLKKPVTDCVISVPSFFTDAERRSVLDAAQIVGLNCLRLMNDMTAVALNYGIYKQDLPSLDEKPRIVVFVDMGHSAFQVSACAFNKGKLKVLGTAFDPFLGGKNFDEKLVEHFCAEFKTKYKLDAKSKIRALLRLYQECEKLKKLMSSNSTDLPLNIECFMNDKDVSGKMNRSQFEELCAELLQKIEVPLYSLLEQTHLKVEDVSAVEIVGGATRIPAVKERIAKFFGKDISTTLNADEAVARGCALQCAILSPAFKVREFSVTDAVPFPISLIWNHDSEDTEGVHEVFSRNHAAPFSKVLTFLRRGPFELEAFYSDPQGVPYPEAKIGRFVVQNVSAQKDGEKSRVKVKVRVNTHGIFTISTASMVEKVPTEENEMSSEADMECLNQRPPENPDTDKNVQQDNSEAGTQPQVQTDAQQTSQSPPSPELTSEENKIPDADKANEKKVDQPPEAKKPKIKVVNVELPIEANLVWQLGKDLLNMYIETEGKMIMQDKLEKERNDAKNAVEEYVYEFRDKLCGPYEKFICEQDHQNFLRLLTETEDWLYEEGEDQAKQAYVDKLEELMKIGTPVKVRFQEAEERPKMFEELGQRLQHYAKIAADFRNKDEKYNHIDESEMKKVEKSVNEVMEWMNNVMNAQAKKSLDQDPVVRAQEIKTKIKELNNTCEPVVTQPKPKIESPKLERTPNGPNIDKKEEDLEDKNNFGAEPPHQNGECYPNEKNSVNMDLD

Legend:
[1] = target: Ssa1 wild type, epitope-tagged (FLAG-Ssa1, GFP-Ssa1, HA-Ssa1) (S. cerevisiae) (UniProt P10591); assay: co-IP; yeast extract (200 ug) on anti-Flag M2 magnetic beads, 4°C overnight; 50 mM Na-phosphate pH 8.0, 300 mM NaCl, 0.01% Tween-20; eluted with 3x FLAG peptide; western blot
[2] = target: FLAG-Ssa1 V435F (substrate-binding deficient mutant) (S. cerevisiae) (UniProt P10591); assay: as above
FLAG-Lonp-1, P36776 = target: T1, FLAG-Lonp-1, P36776; assay: co-IP; HEK293 cells transfected with FLAG-Lonp-1, 24 h; complexes isolated on FLAG Dynabeads; western blot; details: remark: other sources report otherwise

| Binder | binding [1] | binding [2] | binding (FLAG-Lonp-1, P36776) |
| --- | --- | --- | --- |
| B1 | binds | no binding | – |
| B2 | – | – | no binding |
